According to the supplement of paper PMC12819154, “High-throughput peptide-centric local stability assay extends protein–ligand identification to membrane proteins, tissues and bacteria” (Nature Structural & Molecular Biology, 2025):
The other results are listed elsewhere or left out. Most entries show no effect beyond the scatter of the controls.

Chains of the proteins cited; added tags and fusions are not shown. Lines headed by an entry give the natural chain unless they say otherwise; changes in a name come on top.
UniProt Q6P5F9, whole entry: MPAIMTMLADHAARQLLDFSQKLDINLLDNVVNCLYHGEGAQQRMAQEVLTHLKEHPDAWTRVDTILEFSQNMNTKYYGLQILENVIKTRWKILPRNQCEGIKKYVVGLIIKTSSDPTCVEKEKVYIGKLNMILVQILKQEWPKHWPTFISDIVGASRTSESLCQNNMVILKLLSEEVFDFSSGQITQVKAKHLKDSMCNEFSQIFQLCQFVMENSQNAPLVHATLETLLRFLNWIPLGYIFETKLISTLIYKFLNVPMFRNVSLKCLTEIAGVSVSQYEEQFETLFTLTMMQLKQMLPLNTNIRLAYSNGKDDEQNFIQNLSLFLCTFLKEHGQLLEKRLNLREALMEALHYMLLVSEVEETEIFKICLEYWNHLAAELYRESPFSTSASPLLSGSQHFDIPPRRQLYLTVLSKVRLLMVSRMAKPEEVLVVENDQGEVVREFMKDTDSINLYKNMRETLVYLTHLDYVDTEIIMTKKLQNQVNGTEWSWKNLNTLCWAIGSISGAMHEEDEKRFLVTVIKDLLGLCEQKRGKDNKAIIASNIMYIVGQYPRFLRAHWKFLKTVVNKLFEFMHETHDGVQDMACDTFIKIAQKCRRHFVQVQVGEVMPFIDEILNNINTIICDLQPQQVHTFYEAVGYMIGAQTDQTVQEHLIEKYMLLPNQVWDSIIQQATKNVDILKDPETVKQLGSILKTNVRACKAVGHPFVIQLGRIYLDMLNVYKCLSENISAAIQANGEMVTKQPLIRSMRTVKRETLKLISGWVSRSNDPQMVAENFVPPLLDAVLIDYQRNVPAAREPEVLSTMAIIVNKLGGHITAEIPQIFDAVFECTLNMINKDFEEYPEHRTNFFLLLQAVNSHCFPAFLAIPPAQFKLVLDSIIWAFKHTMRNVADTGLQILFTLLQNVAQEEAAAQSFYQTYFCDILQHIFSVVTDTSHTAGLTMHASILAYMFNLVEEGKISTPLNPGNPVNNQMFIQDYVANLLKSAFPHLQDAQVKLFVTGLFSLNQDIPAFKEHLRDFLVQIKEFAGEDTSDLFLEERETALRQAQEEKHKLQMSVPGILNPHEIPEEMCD
UniProt Q6QWF9: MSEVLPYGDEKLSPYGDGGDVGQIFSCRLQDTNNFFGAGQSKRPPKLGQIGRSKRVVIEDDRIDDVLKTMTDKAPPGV
UniProt Q6P8I4: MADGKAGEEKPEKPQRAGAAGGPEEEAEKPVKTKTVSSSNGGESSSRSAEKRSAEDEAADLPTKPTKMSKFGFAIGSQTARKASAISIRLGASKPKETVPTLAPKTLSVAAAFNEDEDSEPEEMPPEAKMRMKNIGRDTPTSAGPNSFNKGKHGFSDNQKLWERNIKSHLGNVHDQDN
UniProt Q6P1G2: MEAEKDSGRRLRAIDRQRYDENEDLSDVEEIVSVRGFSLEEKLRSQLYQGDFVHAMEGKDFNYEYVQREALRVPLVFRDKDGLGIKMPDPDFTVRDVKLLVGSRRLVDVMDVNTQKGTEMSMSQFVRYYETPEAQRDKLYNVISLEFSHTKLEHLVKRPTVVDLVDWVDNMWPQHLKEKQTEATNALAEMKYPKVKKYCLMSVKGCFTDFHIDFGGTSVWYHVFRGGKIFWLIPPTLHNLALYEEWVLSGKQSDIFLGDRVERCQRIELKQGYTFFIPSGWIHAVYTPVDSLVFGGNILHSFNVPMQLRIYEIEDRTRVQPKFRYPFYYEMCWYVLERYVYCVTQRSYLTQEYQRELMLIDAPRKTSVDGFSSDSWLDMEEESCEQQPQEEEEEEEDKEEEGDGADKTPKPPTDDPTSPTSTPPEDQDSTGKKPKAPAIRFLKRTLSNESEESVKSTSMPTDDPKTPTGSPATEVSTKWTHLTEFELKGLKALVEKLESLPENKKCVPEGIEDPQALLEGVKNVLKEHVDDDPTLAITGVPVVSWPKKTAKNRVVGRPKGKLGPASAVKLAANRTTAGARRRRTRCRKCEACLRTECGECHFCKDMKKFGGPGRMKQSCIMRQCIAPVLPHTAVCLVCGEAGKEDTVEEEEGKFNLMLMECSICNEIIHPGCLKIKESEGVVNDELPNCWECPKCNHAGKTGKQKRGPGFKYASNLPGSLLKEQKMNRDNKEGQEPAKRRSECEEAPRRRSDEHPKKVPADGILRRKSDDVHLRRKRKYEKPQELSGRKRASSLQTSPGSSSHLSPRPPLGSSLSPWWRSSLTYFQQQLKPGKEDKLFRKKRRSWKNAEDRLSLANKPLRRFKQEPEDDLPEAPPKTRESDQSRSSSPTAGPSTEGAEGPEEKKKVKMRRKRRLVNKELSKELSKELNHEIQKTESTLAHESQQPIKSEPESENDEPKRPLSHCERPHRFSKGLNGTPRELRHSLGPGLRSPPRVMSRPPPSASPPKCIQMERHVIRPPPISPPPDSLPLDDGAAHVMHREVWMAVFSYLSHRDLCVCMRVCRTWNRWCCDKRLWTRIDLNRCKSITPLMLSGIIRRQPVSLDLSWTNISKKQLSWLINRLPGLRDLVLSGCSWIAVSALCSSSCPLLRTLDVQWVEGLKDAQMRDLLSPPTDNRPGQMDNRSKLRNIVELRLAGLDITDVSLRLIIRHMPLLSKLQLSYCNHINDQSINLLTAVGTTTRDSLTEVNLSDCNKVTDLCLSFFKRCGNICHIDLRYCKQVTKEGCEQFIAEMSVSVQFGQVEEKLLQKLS
UniProt Q6PIX9: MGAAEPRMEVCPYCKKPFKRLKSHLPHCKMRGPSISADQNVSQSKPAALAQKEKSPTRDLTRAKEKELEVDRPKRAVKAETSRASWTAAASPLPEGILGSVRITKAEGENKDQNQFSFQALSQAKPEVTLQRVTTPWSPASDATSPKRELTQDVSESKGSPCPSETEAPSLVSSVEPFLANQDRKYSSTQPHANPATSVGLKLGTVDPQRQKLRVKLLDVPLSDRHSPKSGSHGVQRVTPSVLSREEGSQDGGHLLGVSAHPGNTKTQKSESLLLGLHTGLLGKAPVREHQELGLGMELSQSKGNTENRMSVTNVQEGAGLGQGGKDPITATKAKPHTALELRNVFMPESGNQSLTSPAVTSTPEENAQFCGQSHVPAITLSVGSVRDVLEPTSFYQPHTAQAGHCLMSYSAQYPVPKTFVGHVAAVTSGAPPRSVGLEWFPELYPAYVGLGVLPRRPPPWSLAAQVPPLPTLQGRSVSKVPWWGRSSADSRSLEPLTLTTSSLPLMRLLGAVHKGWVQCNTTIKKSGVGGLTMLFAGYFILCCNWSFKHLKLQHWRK
UniProt Q6P8I6: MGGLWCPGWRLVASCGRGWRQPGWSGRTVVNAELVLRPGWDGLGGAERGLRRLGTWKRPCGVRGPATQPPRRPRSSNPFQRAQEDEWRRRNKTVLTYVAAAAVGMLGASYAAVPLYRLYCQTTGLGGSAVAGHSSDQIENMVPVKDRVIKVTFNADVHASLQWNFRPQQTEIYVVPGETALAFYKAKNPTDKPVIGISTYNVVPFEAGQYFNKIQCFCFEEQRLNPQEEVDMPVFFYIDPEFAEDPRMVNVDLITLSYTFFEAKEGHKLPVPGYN
UniProt Q6P5E8: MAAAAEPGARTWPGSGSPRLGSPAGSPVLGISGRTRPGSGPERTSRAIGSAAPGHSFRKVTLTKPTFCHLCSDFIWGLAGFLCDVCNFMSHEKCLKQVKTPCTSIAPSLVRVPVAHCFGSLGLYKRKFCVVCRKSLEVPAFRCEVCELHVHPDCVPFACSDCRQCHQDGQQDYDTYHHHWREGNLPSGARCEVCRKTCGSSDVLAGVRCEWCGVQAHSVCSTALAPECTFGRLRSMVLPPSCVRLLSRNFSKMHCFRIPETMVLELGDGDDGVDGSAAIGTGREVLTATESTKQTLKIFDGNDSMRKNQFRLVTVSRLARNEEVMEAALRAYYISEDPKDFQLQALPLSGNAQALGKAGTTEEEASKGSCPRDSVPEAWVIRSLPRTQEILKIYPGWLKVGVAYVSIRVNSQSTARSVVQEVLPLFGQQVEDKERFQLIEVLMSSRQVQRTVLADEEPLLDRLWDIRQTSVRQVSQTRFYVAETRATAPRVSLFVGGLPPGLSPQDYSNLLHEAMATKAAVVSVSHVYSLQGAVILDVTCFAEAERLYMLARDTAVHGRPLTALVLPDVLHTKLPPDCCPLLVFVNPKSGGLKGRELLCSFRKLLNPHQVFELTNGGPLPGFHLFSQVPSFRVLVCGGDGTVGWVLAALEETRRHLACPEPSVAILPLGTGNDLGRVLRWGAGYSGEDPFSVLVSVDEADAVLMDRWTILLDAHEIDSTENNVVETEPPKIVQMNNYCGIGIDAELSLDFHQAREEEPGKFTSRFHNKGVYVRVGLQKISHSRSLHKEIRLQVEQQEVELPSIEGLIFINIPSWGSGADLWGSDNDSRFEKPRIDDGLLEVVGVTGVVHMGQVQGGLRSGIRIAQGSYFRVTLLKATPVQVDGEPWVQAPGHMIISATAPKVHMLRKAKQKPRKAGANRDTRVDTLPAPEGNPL
UniProt Q6P3B9: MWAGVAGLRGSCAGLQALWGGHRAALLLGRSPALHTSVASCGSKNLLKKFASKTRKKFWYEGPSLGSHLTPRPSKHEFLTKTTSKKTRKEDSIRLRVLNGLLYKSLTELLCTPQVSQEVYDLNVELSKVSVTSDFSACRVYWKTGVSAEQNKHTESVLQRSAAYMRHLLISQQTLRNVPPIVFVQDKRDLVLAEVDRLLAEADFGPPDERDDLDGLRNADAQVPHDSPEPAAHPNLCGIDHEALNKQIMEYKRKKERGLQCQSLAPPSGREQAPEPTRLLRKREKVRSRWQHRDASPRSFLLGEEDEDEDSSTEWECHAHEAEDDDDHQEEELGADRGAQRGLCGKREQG
UniProt Q6P9J9: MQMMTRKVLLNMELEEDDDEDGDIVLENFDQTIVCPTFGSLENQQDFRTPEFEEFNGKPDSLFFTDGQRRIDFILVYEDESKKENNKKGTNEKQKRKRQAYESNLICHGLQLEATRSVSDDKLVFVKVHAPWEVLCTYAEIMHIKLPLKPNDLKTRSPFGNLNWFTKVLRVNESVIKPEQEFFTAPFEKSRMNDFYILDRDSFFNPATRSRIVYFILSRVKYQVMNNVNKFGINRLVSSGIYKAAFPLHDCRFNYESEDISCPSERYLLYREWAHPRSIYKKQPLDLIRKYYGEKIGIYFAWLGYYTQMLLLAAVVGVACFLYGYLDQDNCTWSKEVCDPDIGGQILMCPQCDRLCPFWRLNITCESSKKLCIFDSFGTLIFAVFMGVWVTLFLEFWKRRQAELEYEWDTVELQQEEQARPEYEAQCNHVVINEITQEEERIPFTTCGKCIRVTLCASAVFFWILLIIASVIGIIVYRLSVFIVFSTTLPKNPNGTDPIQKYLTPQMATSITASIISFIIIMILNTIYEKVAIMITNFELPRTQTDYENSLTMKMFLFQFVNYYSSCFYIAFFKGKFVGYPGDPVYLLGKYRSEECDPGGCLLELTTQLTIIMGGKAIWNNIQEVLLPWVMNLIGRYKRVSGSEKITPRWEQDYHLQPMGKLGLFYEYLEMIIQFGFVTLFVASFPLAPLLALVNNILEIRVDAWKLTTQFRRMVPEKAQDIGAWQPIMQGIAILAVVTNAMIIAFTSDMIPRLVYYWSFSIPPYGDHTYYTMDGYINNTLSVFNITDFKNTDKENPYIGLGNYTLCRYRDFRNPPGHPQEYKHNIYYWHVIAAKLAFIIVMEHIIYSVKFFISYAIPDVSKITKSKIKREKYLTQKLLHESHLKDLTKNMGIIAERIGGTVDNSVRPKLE
UniProt Q6PAM1: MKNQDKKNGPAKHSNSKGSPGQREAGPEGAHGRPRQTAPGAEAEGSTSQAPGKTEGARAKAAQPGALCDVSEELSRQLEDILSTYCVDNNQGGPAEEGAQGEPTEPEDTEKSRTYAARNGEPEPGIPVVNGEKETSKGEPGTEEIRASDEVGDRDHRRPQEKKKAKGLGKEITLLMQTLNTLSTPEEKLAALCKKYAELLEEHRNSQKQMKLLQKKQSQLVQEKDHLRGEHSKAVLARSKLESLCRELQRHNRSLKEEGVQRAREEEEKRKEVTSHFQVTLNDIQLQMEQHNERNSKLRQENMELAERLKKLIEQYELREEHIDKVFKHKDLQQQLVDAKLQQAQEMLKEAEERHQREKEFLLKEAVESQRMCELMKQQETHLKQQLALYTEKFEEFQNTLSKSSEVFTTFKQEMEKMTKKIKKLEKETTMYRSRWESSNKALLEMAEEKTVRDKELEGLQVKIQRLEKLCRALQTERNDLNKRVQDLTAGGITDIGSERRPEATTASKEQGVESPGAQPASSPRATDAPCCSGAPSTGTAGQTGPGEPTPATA

Compound: CN[C@@H]1C[C@H]2O[C@@](C)([C@@H]1OC)n1c3ccccc3c3c4c(c5c6ccccc6n2c5c31)C(=O)NC4 [staurosporine]
Assay: log2 fold change of tryptic peptide abundance, ligand vs vehicle (limited proteolysis) (log2 ratio); higher = more trypsin-susceptible (destabilized)
Conditions: ligand concentration: 20 uM; sample: mouse liver crude lysate; replicate design: treated separately

| Target | log2 fold change |
| --- | --- |
| UniProt Q6P5F9 (peptide sequence: QMLPLNTNIR, peptide start residue: 296) | 0.176 |
| UniProt Q6QWF9 (peptide sequence: RVVIEDDRIDDVLK, peptide start residue: 55) | 0.419 |
| UniProt Q6P8I4 (peptide sequence: SHLGNVHDQDN, peptide start residue: 168) | 0.0968 |
| UniProt Q6P1G2 (peptide sequence: LVDVMDVNTQK, peptide start residue: 106) | 0.204 |
| UniProt Q6PIX9 (peptide sequence: LLDVPLSDR, peptide start residue: 217) | 0.237 |
| UniProt Q6P8I6 (peptide sequence: AQEDEWR, peptide start residue: 82) | 0.299 |
| UniProt Q6P1B1 (peptide sequence: SAGHHLVPVKENLVDK, peptide start residue: 138) | 0.411 |
| UniProt Q6PGC1 (peptide sequence: VLIDSVLR, peptide start residue: 1330) | 0.35 |
| UniProt Q6P5E8 (peptide sequence: AGTTEEEASKGSCPR, peptide start residue: 358) | 0.194 |
| UniProt Q6P3B9 (peptide sequence: HTESVLQR, peptide start residue: 153) | -0.294 |
| UniProt Q6P9J9 (peptide sequence: LLHESHLK, peptide start residue: 878) | -0.167 |
| UniProt Q6PAM1 (peptide sequence: LQQAQEMLK, peptide start residue: 341) | 0.223 |

Retrieved one by one from above, two records:

| Target | log2 fold change |
| --- | --- |
| UniProt Q6QWF9 (peptide sequence: RVVIEDDRIDDVLK, peptide start residue: 55) | 0.419 |
| UniProt Q6P8I4 (peptide sequence: SHLGNVHDQDN, peptide start residue: 168) | 0.0968 |
